Measured values as given in patent US11701394B2, “Compositions and methods for treating cholestatic disease” (Seres Therapeutics, Inc., priority 2017, dated 2023).
For at least one compound, name, drawing or mass did not settle the structure.

Key:
human FXR [1] = target: T1, human FXR (Homo sapiens, UniProt Q96RI1)
T1 sequence (Q96RI1 262-486 limits assumed): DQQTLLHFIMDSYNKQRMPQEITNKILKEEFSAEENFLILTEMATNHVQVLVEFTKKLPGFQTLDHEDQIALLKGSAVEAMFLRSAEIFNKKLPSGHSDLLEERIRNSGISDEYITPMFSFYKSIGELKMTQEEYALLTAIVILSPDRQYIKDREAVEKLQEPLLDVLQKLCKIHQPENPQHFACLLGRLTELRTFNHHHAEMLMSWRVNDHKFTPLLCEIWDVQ

human FXR [2] = target: T1, human FXR; set-up: host or cells: CHO reporter cell line (Gal4 UAS-firefly luciferase); details: cited from earlier work
[3] = PBC patients; cited from earlier work

For `CC[C@H]1[C@@H](O)[C@@H]2[C@H](CC[C@]3(C)[C@@H]([C@H](C)CCC(=O)O)CC[C@@H]23)[C@@]2(C)CC[C@@H](O)C[C@@H]12` [OCA, obeticholic acid], the “left shift of OCA dose-response curve” value (human FXR [1]; in the presence of 50 uM CDCA) is given as “about 20 fold”, the “potency compared to CDCA” value (human FXR [1]; serial dilutions, luciferase readout) is given as about 100 × and the “potency in activating human FXR compared to CDCA (reported)” value (human FXR [2]) is given as 100 ×.
In the case of `C[C@H](CCC(=O)O)[C@H]1CC[C@H]2[C@@H]3CC[C@@H]4C[C@H](O)CC[C@]4(C)[C@H]3C[C@H](O)[C@]12C` [DCA, deoxycholic acid], the “hFXR activation in combination with CDCA” value (human FXR [1]; in the presence of 50 uM CDCA) is reported as “upregulated hFXR agonist activity in a more additive fashion”.
In the case of `C[C@H](CCC(=O)O)[C@H]1CC[C@H]2[C@@H]3[C@@H](O)C[C@@H]4C[C@H](O)CC[C@]4(C)[C@H]3CC[C@]12C` [UDCA, Ursodeoxycholic acid], the “patients who fail to respond to treatment” value [3] is listed as “about 40%”.
For `C[C@H](CCC(=O)O)[C@H]1CC[C@H]2[C@@H]3CC[C@@H]4C[C@H](O)CC[C@]4(C)[C@H]3CC[C@]12C` [LCA, lithocholic acid], the “hFXR activation in combination with CDCA” value (human FXR [1]; in the presence of 50 uM CDCA) was “upregulated hFXR agonist activity in a more additive fashion”.
